# Measurements: PubChem BioAssay AID2685 (National Center for Advancing Translational Sciences (NCATS), 2010)
# Among all 320,000 compounds or so, about 2,100 (0.66%) were called active. Inconclusive means that the source gave no clear call. Such entries were picked first, then a sample of the others. Calls follow the shape of the dose curve; as a rule, active = well fitted inhibition curve with a large enough effect in the signal ratio, with a control signal flat (not every such curve was filed as active); inconclusive = small, poorly fitted or top-dose-only effect, or effect the other way, or a change in a side signal; inactive = flat fitted curve, though single readings scatter; the % refers to the signal ratio. Potencies beside an inconclusive call are fits to weak or partial responses and may not hold up.
# Assay: qHTS Assay for Lipid Storage Modulators in Drosophila S3 Cells
# Conditions: BODIPY lipid droplet fluorescence, 18-24 h, cells fed with added oleic acid; lipid storage change, negative = inhibition: at 46.1 µM (top of the series) unless noted
# In short: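 Drosophila S3 cells got compounds at several concentrations plus oleic acid (400 uM solution). Laser-scanning cytometry with 488 nm excitation read lipid droplets at 500-530 nm and cells at 575-640 nm. Percent activity was relative to 20 uM Triacsin C.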
# % is scaled to controls: 0 for no effect and ±100 for the full control effect; potency is read from the fitted curve at half-maximal effect.
Compound,"lipid storage change, negative = inhibition",Potency
c1ccc(Oc2cc(-n3cncn3)ncn2)cc1,inconclusive: 7.07%,
O=S(=O)(Nc1cccnc1)c1ccc(Cl)c(C(F)(F)F)c1,inconclusive: 10.7%,
Cc1ccc(C(C(=O)NCc2ccccc2)N(C(=O)c2ccccn2)c2ccccc2)o1 (stereo unspecified),inconclusive: -52.4%,
COc1ccccc1N(CC(=O)N1CCCCCC1)S(C)(=O)=O,inconclusive: -43%,
CCOc1cc(-c2nc(C)c(C(C)=O)n2O)ccc1OCC(=O)Nc1ccccc1,inconclusive: -9.91%,
CC(C(=O)Nc1ccccc1C#N)N1C(=O)NC2(CCCCCC2)C1=O (stereo unspecified),inconclusive,
CN=c1scc(-c2cccs2)n1/N=C/c1ccc(O)c(O)c1O,inconclusive: -12.7%,
C/C(Cl)=C\Cn1c(Nc2ccc(C)cc2)nc2c1c(=O)n(C)c(=O)n2C,inconclusive: 8.85%,
CC(Sc1nnc(-c2ccco2)o1)C(=O)NCCC1=CCCCC1 (stereo unspecified),inconclusive: 37.3%,
Cc1cc(=O)oc(C)c1C(=O)n1nc(C)c2c1C[C@@H]1[C@H]2C1(C)C,inconclusive: 14.7%,
O=C(Cc1ccc(Cl)cc1)OCC(=O)c1ccc[nH]1,inconclusive: -13.8%,
O=C(CNC(=O)C1CCCCC1)Nc1ccccc1Cl,,"inconclusive: 0.0046 µM [falling, full curve, poor fit]"
CCSc1nnc(CNc2ccc(F)cc2)n1CC1CCCO1 (stereo unspecified),inconclusive: -31.9%,
COc1cccc(N=C(N)N=C(N)N)c1,,"inconclusive: 0.82 µM [falling, full curve, poor fit]"
CC(=O)N/C(=C\c1ccccc1)C(=O)NC(C)C(=O)O (stereo unspecified),,"inconclusive: 29.1 µM [cytotoxic, single point]"
O=S(=O)(Cc1ccccc1Cl)Nc1ccccn1,inconclusive: 17.5%,
O=C(Oc1ccc(Br)cc1C(=S)N1CCOCC1)c1ccc([N+](=O)[O-])cc1[N+](=O)[O-],,"inconclusive: 29.1 µM [falling, single point]"
O=C(NCc1ccncc1)c1nc(-c2ccc(C(F)(F)F)cc2)no1,,"inconclusive: 0.0058 µM [falling, full curve, poor fit]"
O=C(Cc1ccccc1)NNC(=O)Cc1ccccc1,inconclusive: -0.074%,
Cc1nnc(SCC(N)=O)n1CC1CCCO1 (stereo unspecified),,"inconclusive: 16.4 µM [falling, single point]"
Cn1c(C(=O)N2CCN(c3cccc(C(F)(F)F)c3)CC2)cc2sccc21,inconclusive: -16.8%,
CCCC[n+]1ccn(C2=C([O-])c3ccccc3C(=O)/C2=N\S(=O)(=O)c2ccc(Br)cc2)c1,,"inconclusive: 18.4 µM [falling, single point]"
CCCNS(=O)(=O)c1cccc(C(=O)OCc2cc(=O)oc3cc(OC)ccc23)c1,,active: 0.326 µM
C#CCOCCOCCOCCNc1nc(N2CCN(C(=O)[C@H](CCCCN)n3cc(CCCC)nn3)CC2)nc(N2CCN(C(=O)[C@H](CCCCN)n3cc(CCCC)nn3)CC2)n1,inconclusive: 9.48%,
Cc1ccc(S(=O)(=O)NCC(=O)N(CC(=O)NCc2ccco2)Cc2cccs2)cc1,inconclusive: -10.2%,
CC(C)(C)NC(=O)c1ccc2c(c1)N(CC(=O)N1CCCCC1)C(=O)C(C)(C)O2,inconclusive: -56.3%,

Compound,"lipid storage change, negative = inhibition",Potency
Cc1cc(OCC(=O)Nc2ccc3oc(-c4ccncc4)nc3c2)ccc1Cl,,"inconclusive: 1.3 µM [activator, partial curve]"
CCOC(=O)c1cc(C)sc1NC(=O)C(c1ccccc1)c1ccccc1,,"inconclusive: 16.4 µM [activator, single point]"
O=C(COc1cc(Cl)ccc1Cl)Nc1nnc(CC(=O)N2CCOCC2)s1,inconclusive: 10.7%,
N#C/C(=C/c1ccc(OCc2ccc(C(=O)O)cc2)cc1)C(=O)Nc1ccccc1,inactive,
CCc1ccc(C2CC(=O)N(c3ccc(F)cc3)C3=C2C(=O)OC3)cc1 (stereo unspecified),inconclusive: -8.43%,
O=c1c2[nH]c3ccc(F)cc3c2ncn1CCN1CCOCC1,inconclusive: 15.6% [at 9.22 µM],
CCOC(=O)N1CCN(S(=O)(=O)c2ccc(F)c(C(=O)Nc3cc(C)cc(C)c3)c2)CC1,inconclusive: 35.2%,
Cc1nnc(NC(=O)CSc2nnc3ncccn23)s1,,"inconclusive: 23.1 µM [activator, partial curve]"
O=S(=O)(c1ccc(=S)[nH]c1)N1CCOCC1,,"inconclusive: 20.6 µM [activator, single point]"
COc1ccc(-n2c(=S)[nH]c3ccccc32)cc1,inconclusive: -1.18%,
c1ccc(-n2cccc2CNC2CCCCC2)cc1,,"inconclusive: 0.0058 µM [falling, full curve, poor fit]"
O=C(N/N=C\c1ccc(O)c([N+](=O)[O-])c1)C1COc2ccccc2O1 (stereo unspecified),inconclusive: 8.28%,
ON=C1CCN(c2ncc(C(F)(F)F)cc2Cl)CC1,inconclusive: 144%,
CC(=O)c1cccc(OCc2cc(C(=O)N3C[C@@H](C)O[C@@H](C)C3)no2)c1,,"inconclusive: 3.26 µM [activator, single point]"
C/C(=N\NC(=O)COc1ccc(C)cc1C(C)C)c1cc2ccccc2o1,,"inconclusive: 16.4 µM [falling, single point]"
COc1ccc(NC(=O)CN(C)C(=O)C(Sc2ccccc2)c2ccccc2)cc1 (stereo unspecified),,"inconclusive: 29.1 µM [falling, single point]"
CC(C)(C)OC(=O)N[C@@H](COCc1ccccc1)C(=O)N[C@@H](CO)[C@H](O)[C@@H]1C[C@@H]1C(=O)N1CCCC1,inconclusive: 38.1%,
CCC(=O)Nc1nnc(S(=O)(=O)N2CCCCCC2)s1,inconclusive: 29.2%,
COc1ccc(C2SCC(=O)N2c2ccc(F)cc2)cc1 (stereo unspecified),inconclusive: -33.5%,
O=C(NCCNC(=O)c1cc(Cl)ccc1Cl)c1ccccn1,inconclusive: -15.4%,
O=C(CSc1nnc(-c2ccncc2)o1)Nc1ccc(F)c(F)c1,,"inconclusive: 0.103 µM [falling, full curve, poor fit]"
COc1cnc(-c2ccccn2)nc1Sc1ccccc1,,"inconclusive: 0.291 µM [activator, full curve, poor fit]"
CSc1cccc(NC(=O)/C=C/c2ccc(Cl)cc2)c1,,"inconclusive: 23.1 µM [falling, single point]"
COc1ccc(C(=O)CSc2nnc(-c3cccs3)n2-c2ccccc2)cc1,inconclusive: 3.72%,
O=C(Nc1ccccc1Br)C1CCN(C(=O)Cc2ccccc2)CC1,inconclusive: 36.1%,
Cc1ccc(NC(=O)c2ccco2)c([N+](=O)[O-])c1,inconclusive: 8.18%,

Compound,"lipid storage change, negative = inhibition",Potency
O=C(NC(=S)Nc1cccnc1Cl)c1ccc(F)cc1,,"inconclusive: 29.1 µM [activator, single point]"
O=[N+]([O-])c1cc(S(=O)(=O)C(F)(F)F)ccc1NCC1CCCO1 (stereo unspecified),inconclusive: -19.9%,
Cc1ccccc1C(=O)N/N=C/c1ccc(OCC(=O)N2CCCCC2)cc1,,"inconclusive: 5.17 µM [falling, single point]"
O=C(C1CCCN(S(=O)(=O)c2cccs2)C1)N1CCC(N2CCCCC2)CC1 (stereo unspecified),inconclusive: -8.52%,
CCCSc1ccc(-c2nn(-c3ccccc3)cc2/C=C(/C#N)C(=O)N2CCOCC2)cc1,inactive,
Cc1nc2ccc(NC(=O)CCS(=O)(=O)c3ccc(Cl)cc3)cc2s1,inconclusive: 30.8%,
Cc1cccc(-c2nnc3n2N=C(c2ccc(Br)cc2)CS3)c1,,"inconclusive: 16.4 µM [activator, single point]"
NS(=O)(=O)c1ccc(CCNC(=O)c2ccc(=O)[nH]c2)cc1,inconclusive: -11.8%,
O=C(NCc1ccc(F)cc1)c1ccc(N2CCc3ccccc32)c([N+](=O)[O-])c1,,"inconclusive: 29.1 µM [cytotoxic, single point]"
CCOC(=O)C1CCN(C(=O)CC(C)c2ccccc2)CC1 (stereo unspecified),inconclusive: 2.97%,
COc1cc(O)c2c(=O)c(-c3ccc(O[C@@H]4O[C@H](CO)[C@@H](O)[C@H](O)[C@H]4O)cc3)coc2c1,inconclusive: -71.5%,
CC1=C(C(N)=O)C(c2ccccc2F)NC(=O)N1 (stereo unspecified),inconclusive: -60.1%,
COc1ccc(C)cc1-n1nnnc1SCC(=O)NC1CCCC1,inconclusive,
Cc1ccsc1C(=O)c1sccc1C,inconclusive: -0.0746%,
COc1ccc(CNc2nc3ccccc3n2Cc2ccc(Cl)cc2)cc1OC,inactive,
Cc1sc2ncnc(N3CCCC(C)C3)c2c1C (stereo unspecified),inconclusive: 14.4%,
COc1ccccc1N1C(=S)N=C(Nc2c(C)cccc2C)C12CCCC2,inconclusive: -1.58%,
Cn1cc(S(=O)(=O)N2CCCC2)cc1C(=O)NCc1ccc(F)cc1,,"inconclusive: 7.31 µM [activator, single point]"
COc1ccc(NC(=O)NCCCN2CCN(c3cc(C)ccc3C)CC2)cc1,inconclusive: -6.05%,
COc1ccc(NC(=O)c2[nH]c(C)c(C(C)=O)c2C)cc1S(=O)(=O)Nc1ccc(Br)cc1,,"inconclusive: 29.1 µM [falling, single point]"
O=C(O)Cc1sc(NCCc2ccccc2)nc1-c1ccc(F)cc1,inconclusive: -21.2%,
O=C(NCC1CCCO1)c1ccc2c(c1)N(Cc1ccc(F)cc1)CCS2 (stereo unspecified),,"inconclusive: 0.82 µM [falling, full curve, poor fit]"
CCC(C)c1ccccc1OCCCN(C)Cc1ccccc1 (stereo unspecified),inconclusive: -24.9%,
CCC1CCCCN1CCCNC(=O)c1ccc(N2CCOCC2)c(NS(=O)(=O)c2ccc(OC)cc2)c1 (stereo unspecified),inconclusive: 4%,

# Whole records, looked up by structure:
# Cn1cc(S(=O)(=O)N2CCCC2)cc1C(=O)NCc1ccc(F)cc1 in the list: Potency: inconclusive: 7.31 µM [activator, single point]
# Cc1nc2ccc(NC(=O)CCS(=O)(=O)c3ccc(Cl)cc3)cc2s1 in the list: lipid storage change, negative = inhibition: inconclusive: 30.8%
# O=C(C1CCCN(S(=O)(=O)c2cccs2)C1)N1CCC(N2CCCCC2)CC1 (stereo unspecified) in the list: lipid storage change, negative = inhibition: inconclusive: -8.52%
